Results: PubChem BioAssay AID504834 (National Center for Advancing Translational Sciences (NCATS), 2011)
Screen size: about 320,000 compounds; about 22,000 (6.9%) were called active. Inconclusive results, whose numbers are uncertain, are shown with a selection of clear calls. Calls come from the whole dose curve; as a rule, active = well fitted inhibition curve with a large enough effect; inconclusive = small, poorly fitted or top-dose-only effect, or another doubt; inactive = no such curve, though single readings can be large or run the other way. Potencies beside an inconclusive call are fits to weak or partial responses and may not hold up.

Experiment: Primary qHTS for delayed death inhibitors of the malarial parasite plastid, 96 hour incubation
Details: P. falciparum luciferase reporter growth; series mostly up to 28.7 µM
Method in brief: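 Parasite growth measured via integrated firefly luciferase reporter in P. falciparum. Infected erythrocytes at 2% hematocrit, 0.05% parasitemia final were treated 96 hours at 37 C under 5% CO2, and luminescence was read.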
Potency is the fitted concentration of half-maximal effect.

Which Potency does the source give for `Cc1cc(C)c2nc(NC(=O)c3ccc4c(=O)n5c(nc4c3)CCCCC5)sc2c1` here?
Its Potency is inconclusive: 3.7 µM [inhibitor, single point].

Which Potency does the source give for `CCN1C(=O)[C@H]2[C@@H](c3ccc(-c4ccc(F)cc4)cc3)N[C@@](Cc3ccccc3)(C(=O)OC)[C@H]2C1=O` here?
Its Potency is active: 5.86 µM.

Which Potency does the source give for `CCCNC(=O)COc1cccc(C(=O)NCc2ccccc2)c1` here?
Its Potency is inconclusive: 18.5 µM [inhibitor, single point].

With `NC(=O)CSc1nc2ccccc2nc1SCC(N)=O` as the compound, how does the Potency read?
The Potency was inconclusive: 11.7 µM [inhibitor, partial curve, poor fit].

Which Potency does the source give for `C[C@]12C(=O)N(c3cccc(F)c3)C(=O)N1[C@@H]1c3ccccc3OC[C@@H]1[C@H]2c1ccccc1` here?
Its Potency is active: 8.28 µM.

For `NC(=O)[C@H]1CC2(CC(c3cccc(NC(=O)CC(c4ccccc4)c4ccccc4)c3)=NO2)CN1C(=O)C(c1ccccc1)c1ccccc1` (some centres not stated), which Potency is on record?
Its Potency is active: 13.1 µM.

With `COC(=O)C1=C(C)NC(C)=C(C(=O)OC)C1c1ccc(-c2cccc([N+](=O)[O-])c2)o1` as the compound, how does the Potency read?
The Potency was inconclusive: 18.5 µM [inhibitor, single point].

Which Potency does the source give for `CN(C(=O)c1c(Cl)nc2sccn12)C1CCCCC1` here?
The Potency was inconclusive: 0.0029 µM [inhibitor, full curve, poor fit].

For `Cc1nc2ncnn2c(C)c1CCC(=O)NCCC1=CCCCC1`, which Potency is on record?
The Potency was inconclusive: 0.0928 µM [inhibitor, full curve, poor fit].

Which Potency does the source give for `O=C1C2C(c3ccccc3)(C(=O)N1c1ccc(Cl)cc1)C2(c1ccccc1)c1ccccc1` (configuration not stated) here?
Its Potency is inconclusive: 2.62 µM [inhibitor, full curve, poor fit].

With `CCCCC1=CC2=C(c3ccco3)C(=O)C(C)(OC(=O)c3ccc(OC)cc3)C(=O)C2=CN1CCc1ccccn1` (configuration not stated) as the compound, how does the Potency read?
Its Potency is inconclusive: 14.7 µM [inhibitor, partial curve, poor fit].

For `Cc1ccc(-n2nc(C)c3c(=O)[nH]c(C(F)(F)F)nc32)cc1`, which Potency is on record?
The Potency was inconclusive: 11.7 µM [inhibitor, single point].

For `Cc1cc(=O)n2nc(N3CCCC(C(=O)NC4CCC(C)CC4)C3)sc2n1` (configuration not stated), which Potency is on record?
The Potency was “inactive”.

Which Potency does the source give for `COc1cc(OC)c(OC)cc1CN1CCSCC1` here?
The Potency was “inactive”.

Which Potency does the source give for `OCCOCCN1CCN(C2=Nc3ccccc3Sc3ccccc32)CC1` here?
The Potency was inconclusive: 11.7 µM [inhibitor, partial curve].

Which Potency does the source give for `COc1ccc(CCN(C(=O)c2snc(C(N)=O)c2N)C(C(=O)NCC2CCCO2)c2ccc(F)cc2)cc1OC` (configuration not stated) here?
The Potency was “inactive”.

For `COc1cc(OC)cc(C(=O)NCC(=O)N2CCC(C)CC2)c1`, which Potency is on record?
The Potency was inconclusive: 16.5 µM [inhibitor, single point].

For `Cc1ccc(S(=O)(=O)N2CCOCC2)cc1NC(=O)CN1CCC(Cc2ccccc2)CC1`, which Potency is on record?
The Potency was active: 3.7 µM.

Which Potency does the source give for `O=C(CCc1ccccc1)NCc1ccncc1` here?
The Potency was active: 3.7 µM.

For `CC[N+](CC)(CC#Cc1ccccc1)CC(=O)c1ccc(Cl)cc1`, which Potency is on record?
The Potency was inconclusive: 16.5 µM [inhibitor, single point].

Which Potency does the source give for `Oc1ccc2ccc3[nH]cnc3c2c1` here?
The Potency was “inactive”.

With `CCC1CCCCN1S(=O)(=O)c1ccc(C(=O)Nc2nnc(C3=COCCO3)o2)cc1` (configuration not stated) as the compound, how does the Potency read?
Its Potency is inconclusive: 11.7 µM [inhibitor, partial curve, poor fit].

With `COC(=O)c1ccccc1NC(=S)NC(=O)COc1ccccc1` as the compound, how does the Potency read?
Its Potency is inconclusive: 3.7 µM [inhibitor, single point].

With `COCC(C)n1c(-c2ccc3c(c2)NC(=O)CO3)csc1=Nc1ccc(OC(F)F)cc1` (configuration not stated) as the compound, how does the Potency read?
The Potency was inconclusive: 18.5 µM [inhibitor, single point].

With `COc1ccc(C2N(C(=O)CN3CCCC3)CCCN2S(=O)(=O)c2ccccc2)cc1` (configuration not stated) as the compound, how does the Potency read?
Its Potency is inconclusive: 18.5 µM [inhibitor, single point].

With `O=C(O)CC(NNC(=O)c1ccccc1)C(=O)Nc1ccc([N+](=O)[O-])cc1` (configuration not stated) as the compound, how does the Potency read?
Its Potency is “inactive”.

For `COC(=O)c1cc(S(=O)(=O)Nc2cc(OC)cc(OC)c2)c[nH]1`, which Potency is on record?
The Potency was inconclusive: 0.329 µM [inhibitor, full curve].

Which Potency does the source give for `Cc1ccc(NC(=O)CCC(=O)N/N=C/c2ccco2)c(C)c1` here?
The Potency was inconclusive: 18.5 µM [inhibitor, single point].

Which Potency does the source give for `O=C(CCC(=O)Nc1cccc([N+](=O)[O-])c1)NCc1ccccc1` here?
Its Potency is “inactive”.

With `Cc1cc(NS(=O)(=O)c2ccc(NC(=O)C(C)N3C(=O)c4ccccc4C3=O)cc2)nc(C)n1` (configuration not stated) as the compound, how does the Potency read?
Its Potency is inconclusive: 18.5 µM [inhibitor, single point].

With `O=C1c2ccccc2C(=O)N1CC(O)CNc1ccc(Br)cc1` (configuration not stated) as the compound, how does the Potency read?
Its Potency is inconclusive: 0.0066 µM [inhibitor, full curve, poor fit].

With `CCNc1oc(COc2cccc(C)c2)nc1C#N` as the compound, how does the Potency read?
The Potency was inconclusive: 11.7 µM [inhibitor, single point].

With `Cc1ccc2c(C)c(C(=O)N(Cc3ccc(F)cc3)C3CCS(=O)(=O)C3)oc2c1` (configuration not stated) as the compound, how does the Potency read?
The Potency was inconclusive: 18.5 µM [inhibitor, single point].

With `Cc1ccc(NS(=O)(=O)c2cc3c4c(cccc4c2)C(=O)NC3=O)cc1C` as the compound, how does the Potency read?
Its Potency is inconclusive: 10.4 µM [inhibitor, single point].

With `CCCC1=[N+](CC(=O)c2ccccc2)CCn2c(C)ccc21` as the compound, how does the Potency read?
The Potency was “inactive”.

With `Cc1c(CCOC(=O)c2ccccc2)sc[n+]1CC(=O)c1ccc(Br)cc1` as the compound, how does the Potency read?
Its Potency is “inactive”.

For `COc1ccc(C(C(=O)NC(C)(C)C)N(Cc2cccnc2)C(=O)CCC(=O)Nc2cc(C)on2)cc1` (configuration not stated), which Potency is on record?
Its Potency is inconclusive: 16.5 µM [inhibitor, single point].

Which Potency does the source give for `Cc1onc(-c2ccccc2Cl)c1C(=O)NC1CCS(=O)(=O)C1` (configuration not stated) here?
Its Potency is active: 11.7 µM.

Which Potency does the source give for `CCOC(=O)Cc1nn(Cc2nc(-c3ccc(C)cc3)cs2)c(=O)c2ccccc12` here?
Its Potency is inconclusive: 2.33 µM [inhibitor, single point].

For `CC(C)(C)c1cc(-c2ccccc2)n[nH]1`, which Potency is on record?
The Potency was “inactive”.

With `COc1cc2c(cc1OC)C(C)N(C(=O)c1c(C)noc1C)CC2` (configuration not stated) as the compound, how does the Potency read?
Its Potency is “inactive”.

For `C=CCN(c1ccccc1)S(=O)(=O)c1cccc(C(=O)NCC(c2ccccc2OC)N2CCCC2)c1` (configuration not stated), which Potency is on record?
Its Potency is inconclusive: 6.57 µM [inhibitor, partial curve, poor fit].
